Binding data for five molecules are collected here from publication PMC9440223.

Sequences of proteins named here, by UniProt entry; tags and fusion partners are left off.
UniProt P35222: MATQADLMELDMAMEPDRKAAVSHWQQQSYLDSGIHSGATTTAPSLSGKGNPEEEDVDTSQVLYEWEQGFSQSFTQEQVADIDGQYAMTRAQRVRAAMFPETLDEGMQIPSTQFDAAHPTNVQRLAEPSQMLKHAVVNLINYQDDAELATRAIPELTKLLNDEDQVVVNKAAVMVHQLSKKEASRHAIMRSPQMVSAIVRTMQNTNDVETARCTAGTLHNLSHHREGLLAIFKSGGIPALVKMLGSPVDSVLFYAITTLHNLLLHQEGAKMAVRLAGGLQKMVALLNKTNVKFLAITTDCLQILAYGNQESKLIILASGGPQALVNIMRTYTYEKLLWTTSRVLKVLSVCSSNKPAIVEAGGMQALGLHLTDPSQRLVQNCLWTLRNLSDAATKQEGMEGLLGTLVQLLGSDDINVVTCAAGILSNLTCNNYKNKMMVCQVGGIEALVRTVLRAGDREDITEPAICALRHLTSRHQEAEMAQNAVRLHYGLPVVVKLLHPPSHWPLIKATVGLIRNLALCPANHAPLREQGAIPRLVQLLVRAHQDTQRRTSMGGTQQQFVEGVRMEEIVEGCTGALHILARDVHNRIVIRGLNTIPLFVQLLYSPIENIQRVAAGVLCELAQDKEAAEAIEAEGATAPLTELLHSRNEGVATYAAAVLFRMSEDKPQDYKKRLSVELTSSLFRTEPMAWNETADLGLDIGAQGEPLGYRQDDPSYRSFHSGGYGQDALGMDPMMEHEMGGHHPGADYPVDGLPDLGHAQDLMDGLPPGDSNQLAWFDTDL

Assay [1] concerns the target T1, ZNT9 (Zinc Transporter 9) (human (endogenous in HCT-116 and SW620)) (UniProt Q6PML9).
T1 sequence: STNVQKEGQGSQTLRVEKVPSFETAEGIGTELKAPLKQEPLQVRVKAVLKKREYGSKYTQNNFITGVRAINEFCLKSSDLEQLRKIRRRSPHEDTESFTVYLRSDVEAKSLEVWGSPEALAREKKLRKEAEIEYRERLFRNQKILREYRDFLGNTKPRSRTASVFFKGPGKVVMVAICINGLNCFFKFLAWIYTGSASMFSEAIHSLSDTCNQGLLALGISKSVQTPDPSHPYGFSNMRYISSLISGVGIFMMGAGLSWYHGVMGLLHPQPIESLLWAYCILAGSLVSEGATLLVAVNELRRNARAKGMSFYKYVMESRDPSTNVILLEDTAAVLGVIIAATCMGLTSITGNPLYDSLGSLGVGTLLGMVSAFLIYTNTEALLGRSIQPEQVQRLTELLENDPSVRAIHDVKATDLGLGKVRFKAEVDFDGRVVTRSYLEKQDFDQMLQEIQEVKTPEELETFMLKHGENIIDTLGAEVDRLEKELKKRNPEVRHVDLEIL
Nature of the assay: co-IP; SW620 cells without or with KCTD9 overexpression; β-catenin immunoprecipitates blotted for ZNT9 and ZNT9 immunoprecipitates blotted for β-catenin.

Assay [2] addresses β-catenin in the pBIND vector (UniProt P35222). The experiment in a line: two-hybrid; mammalian two-hybrid in SW620 cells: β-catenin in pBIND, ZNT9 in pACT, pG5luc reporter, read after 24 h; without or with KCTD9 overexpression.
In assay [3] the target is β-catenin (human (endogenous in SW620)) (UniProt P35222). The experiment in a line: co-IP; SW620 cells without or with KCTD9 overexpression; β-catenin immunoprecipitates blotted for ZNT9 and ZNT9 immunoprecipitates blotted for β-catenin.
The target in assay [4] is T2, Recombinant Flag-tagged (3xF)-KCTD9 (human) (UniProt Q7L273).
T2 sequence: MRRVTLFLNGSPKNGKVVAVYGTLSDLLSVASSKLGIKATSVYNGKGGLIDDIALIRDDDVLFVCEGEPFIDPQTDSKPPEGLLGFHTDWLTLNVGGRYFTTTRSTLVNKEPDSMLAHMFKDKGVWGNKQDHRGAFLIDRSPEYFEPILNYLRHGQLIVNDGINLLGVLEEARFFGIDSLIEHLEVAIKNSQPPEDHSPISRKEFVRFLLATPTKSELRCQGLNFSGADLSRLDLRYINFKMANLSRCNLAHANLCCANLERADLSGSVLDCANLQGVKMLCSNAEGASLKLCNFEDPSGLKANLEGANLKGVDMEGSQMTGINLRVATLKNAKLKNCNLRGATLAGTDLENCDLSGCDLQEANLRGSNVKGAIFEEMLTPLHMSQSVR
The experiment in a line: co-IP; Flag immunoprecipitation of ectopically expressed 3xF-KCTD9 from HCT-116 cells, Western blot for ZNT9; IP lysis buffer 0.5% NP-40, 0.5% Triton-X100, 150 mM NaCl, 20 mM Tris-HCl pH 7.3, 4 °C. A general note: Immunoblotting shows a protein as a band on a membrane.

The next assay concerns the target T3, ZNT9 in the pACT vector (UniProt Q6PML9).
T3 sequence: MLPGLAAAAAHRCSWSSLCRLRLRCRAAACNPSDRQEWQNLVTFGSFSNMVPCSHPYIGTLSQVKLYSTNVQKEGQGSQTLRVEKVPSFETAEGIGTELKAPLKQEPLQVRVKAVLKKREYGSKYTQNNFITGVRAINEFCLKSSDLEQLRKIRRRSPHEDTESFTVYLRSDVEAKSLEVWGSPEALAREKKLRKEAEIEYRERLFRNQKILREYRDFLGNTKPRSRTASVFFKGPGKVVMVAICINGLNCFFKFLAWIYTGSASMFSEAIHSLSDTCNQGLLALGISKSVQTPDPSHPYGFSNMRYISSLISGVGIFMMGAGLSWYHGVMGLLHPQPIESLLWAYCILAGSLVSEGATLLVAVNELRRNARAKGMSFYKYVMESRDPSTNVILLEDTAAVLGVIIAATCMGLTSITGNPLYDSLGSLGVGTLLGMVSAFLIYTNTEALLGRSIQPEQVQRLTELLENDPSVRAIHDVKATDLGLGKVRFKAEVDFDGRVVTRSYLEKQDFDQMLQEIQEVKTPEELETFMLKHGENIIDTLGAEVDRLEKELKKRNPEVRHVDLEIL
Nature of the assay: two-hybrid; mammalian two-hybrid in SW620 cells: β-catenin in pBIND, ZNT9 in pACT, pG5luc reporter, read after 24 h; without or with KCTD9 overexpression.

Assay [5] has as its target T1, ZNT9 (Zinc Transporter 9) (human (endogenous in HCT-116 and SW620)). Nature of the assay: co-IP; ZNT9 immunoprecipitation from HCT-116 cells, Western blot for endogenous KCTD9; IP lysis buffer 0.5% NP-40, 0.5% Triton-X100, 150 mM NaCl, 20 mM Tris-HCl pH 7.3, 4 °C.

Results are given in words; binding and its absence hold for the method and conditions named. For some of these results: Binding seen in cells or lysates may run through a third protein. Some binding calls cover weakened binding; strength is not graded here. For some of these results: Tags and fused reporters may be left off the sequences shown.

For β-catenin (from UniProt P35222 1-781), the binding result in assay [1] is listed as “binds”.

B1: ZNT9 in the pACT vector (protein, UniProt Q6PML9 1-568)
chain: MLPGLAAAAAHRCSWSSLCRLRLRCRAAACNPSDRQEWQNLVTFGSFSNMVPCSHPYIGTLSQVKLYSTNVQKEGQGSQTLRVEKVPSFETAEGIGTELKAPLKQEPLQVRVKAVLKKREYGSKYTQNNFITGVRAINEFCLKSSDLEQLRKIRRRSPHEDTESFTVYLRSDVEAKSLEVWGSPEALAREKKLRKEAEIEYRERLFRNQKILREYRDFLGNTKPRSRTASVFFKGPGKVVMVAICINGLNCFFKFLAWIYTGSASMFSEAIHSLSDTCNQGLLALGISKSVQTPDPSHPYGFSNMRYISSLISGVGIFMMGAGLSWYHGVMGLLHPQPIESLLWAYCILAGSLVSEGATLLVAVNELRRNARAKGMSFYKYVMESRDPSTNVILLEDTAAVLGVIIAATCMGLTSITGNPLYDSLGSLGVGTLLGMVSAFLIYTNTEALLGRSIQPEQVQRLTELLENDPSVRAIHDVKATDLGLGKVRFKAEVDFDGRVVTRSYLEKQDFDQMLQEIQEVKTPEELETFMLKHGENIIDTLGAEVDRLEKELKKRNPEVRHVDLEIL
Take B1: the binding result in assay [2] is “binds”.

B2: ZNT9 (Zinc Transporter 9) (protein, UniProt Q6PML9 68-568)
chain: STNVQKEGQGSQTLRVEKVPSFETAEGIGTELKAPLKQEPLQVRVKAVLKKREYGSKYTQNNFITGVRAINEFCLKSSDLEQLRKIRRRSPHEDTESFTVYLRSDVEAKSLEVWGSPEALAREKKLRKEAEIEYRERLFRNQKILREYRDFLGNTKPRSRTASVFFKGPGKVVMVAICINGLNCFFKFLAWIYTGSASMFSEAIHSLSDTCNQGLLALGISKSVQTPDPSHPYGFSNMRYISSLISGVGIFMMGAGLSWYHGVMGLLHPQPIESLLWAYCILAGSLVSEGATLLVAVNELRRNARAKGMSFYKYVMESRDPSTNVILLEDTAAVLGVIIAATCMGLTSITGNPLYDSLGSLGVGTLLGMVSAFLIYTNTEALLGRSIQPEQVQRLTELLENDPSVRAIHDVKATDLGLGKVRFKAEVDFDGRVVTRSYLEKQDFDQMLQEIQEVKTPEELETFMLKHGENIIDTLGAEVDRLEKELKKRNPEVRHVDLEIL
As to B2, the binding entry in assay [3] and in assay [4] was “binds” each time.

B3: KCTD9, overexpressed (pCDH-KCTD9) (protein, UniProt Q7L273 1-389)
chain: MRRVTLFLNGSPKNGKVVAVYGTLSDLLSVASSKLGIKATSVYNGKGGLIDDIALIRDDDVLFVCEGEPFIDPQTDSKPPEGLLGFHTDWLTLNVGGRYFTTTRSTLVNKEPDSMLAHMFKDKGVWGNKQDHRGAFLIDRSPEYFEPILNYLRHGQLIVNDGINLLGVLEEARFFGIDSLIEHLEVAIKNSQPPEDHSPISRKEFVRFLLATPTKSELRCQGLNFSGADLSRLDLRYINFKMANLSRCNLAHANLCCANLERADLSGSVLDCANLQGVKMLCSNAEGASLKLCNFEDPSGLKANLEGANLKGVDMEGSQMTGINLRVATLKNAKLKNCNLRGATLAGTDLENCDLSGCDLQEANLRGSNVKGAIFEEMLTPLHMSQSVR
B3: the binding entry (in assay [1]; in the assay with ZNT9 in the pACT vector) was “binds” in each case.

B4: endogenous KCTD9 (protein, UniProt Q7L273 1-389)
chain: MRRVTLFLNGSPKNGKVVAVYGTLSDLLSVASSKLGIKATSVYNGKGGLIDDIALIRDDDVLFVCEGEPFIDPQTDSKPPEGLLGFHTDWLTLNVGGRYFTTTRSTLVNKEPDSMLAHMFKDKGVWGNKQDHRGAFLIDRSPEYFEPILNYLRHGQLIVNDGINLLGVLEEARFFGIDSLIEHLEVAIKNSQPPEDHSPISRKEFVRFLLATPTKSELRCQGLNFSGADLSRLDLRYINFKMANLSRCNLAHANLCCANLERADLSGSVLDCANLQGVKMLCSNAEGASLKLCNFEDPSGLKANLEGANLKGVDMEGSQMTGINLRVATLKNAKLKNCNLRGATLAGTDLENCDLSGCDLQEANLRGSNVKGAIFEEMLTPLHMSQSVR
Consider B4, for which, in assay [5], the binding entry was “binds”.
